Molecules are shown by their SMILES. The list shows a part of the results. Many values rest on one well or one pass, so single values are uncertain.

The source of these data is the supplement of paper PMC8007513.

This experiment relates to Saccharomyces cerevisiae BY4743. The experiment can be described thus: growth (OD600) relative to untreated control; higher = less growth inhibition. Particulars: compound concentration: 133 uM; 20 h. Here is the method: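 NMCCC compounds (133 uM, no IPBC) tested alone against Saccharomyces cerevisiae BY4743 in YPD, 96-well plates, starting OD600 ~0.1. Growth was read as OD600 at 20 h and expressed as % of the untreated control. Single pass.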
`CN(Cc1ccco1)C(=O)c1ccc(N2CCCS2(=O)=O)cc1` gave a growth of 119%.

Consider `Cc1cc(C(=O)N2CCN(C(=O)c3cccs3)CC2)[nH]n1`, for which the growth was 104%.

As for `CN1\C(=C/C(=N\[S]1(=O)=O)C2=CC=C(C)C=C2)C(=O)NC(C)(C)CO`, the growth came out at 101%.

`CCCNC(=O)CN1CCN(C(=O)CCCc2nc3ccccc3s2)CC1` yielded a growth of 93%.

Turning to `Cc1ccc(Nc2nc(SCc3ccccc3)nnc2C)cc1`, the growth is 92.6%.

The molecule `CCOC(=O)c1ccccc1NS(=O)(=O)c1ccc(S(=O)(=O)N2CCCC2)cc1` registered a growth of 93.3%.

In the case of `CC(C)C\C1=N\N/2C(=O)\C=C(COC3=CC=C(NC(C)=O)C=C3)/N=C2S1`, the growth turned out to be 104%.

Molecule `Cc1cc(N2CCN(CC(=O)N(C)C)CC2)n2nc(C(F)(F)F)nc2n1` displayed a growth of 87.7%.

`O=C(NCc1ccc(F)cc1)c1sccc1S(=O)(=O)NC1CC1` showed a growth of 109%.

`CCS\C1=N\C2=CC=CC=C2C(=O)N1C3CCOC(C)(C)C3` (stereo not given) had a growth of 86.7%.

As for `O=C(Nc1ccc(N2CCCC2)cn1)c1ccc(Cl)cc1`, the growth came to 89.8%.

With `CC(=O)c1c(C)[nH]c(C(=O)C(C)NCc2ccccc2CN2CCCC2)c1C` (stereo not given), the growth was 110%.

In turn, `O=C(CNC(=O)c1ccccc1)NN1S(=O)(=O)c2ccccc2S1(=O)=O` showed a growth of 98.6%.

As for `CCCOc1ccc(CN(C(=O)c2nc(SC)ncc2Cl)C2CCS(=O)(=O)C2)cc1` (stereo not given), the growth came to 101%.

`CCCn1c(C)c(C)c(-c2nc3ccccc3[nH]2)c1NC(=O)C(C)C` showed a growth of 108%.

In the case of `CCN(CC)S(=O)(=O)c1c(C)nn(Cc2coc(-c3cccs3)n2)c1C`, the growth came to 101%.

`Cc1cc(C)c2c(n1)nn1c(NCC(C)C)cc(C)nc21` had a growth of 81.7%.

`CCN(CC)C(=O)c1sc(N2C(=O)Nc3ccccc3N2O)c(C(=O)OC)c1C` showed a growth of 112%.

As for `CN(C)[S](=O)(=O)C/1=C/N(CC(=O)C2=C(C)[N](CC3CCCO3)C(=C2)C)C(=O)/C=C1` (stereo not given), the growth came to 107%.

Regarding `CCC(=O)N[C@@H](Cc1ccccc1)C(=O)Nc1cc(C)on1`, the growth turned out to be 105%.

For the molecule `O=C(CCC(=O)N1CCOc2ccc(Cl)cc21)NCC1CCCO1` (stereo not given), the growth was determined as 89.8%.

Turning to `CCOC(=O)C1CCN(CC1)C(=O)N\C2=C\N(C)C(=O)C3=CC=CC=C23`, the growth was 103%.

The molecule `NS(=O)(=O)c1ccc(CCN2C(=O)NC(NC(=O)c3ccccc3)(C(F)(F)F)C2=O)cc1` (stereo not given) came in with a growth of 95.2%.

As to `CCC(C)NC(=O)c1c(-c2ccccc2)nnc2ccc(C)cc12` (stereo not given), the growth was found to be 112%.

`CCCn1c(=O)n(-c2ccccc2)c(=O)c2ccccc21`: the growth stood at 106%.

`CCOC(=O)c1cc(CNC2(CN3CCOCC3)CCCC2)on1` displayed a growth of 108%.

`CCn1c(CN2CCCCCC2=O)nnc1SCC(=O)NCC(C)C`: the growth was 99.7%.

In turn, `CCOC(CNC(=O)c1cc2c(s1)-c1ccccc1OC2)OCC` displayed a growth of 105%.

As to `Cc1cc(Cc2ccc(S(=O)(=O)N(C)Cc3ccccc3)cc2)c(O)nn1`, the growth came out at 77.5%.

Consider `O=C\1CC(N\C(=N1)N2CCOCC2)C(=O)NC3=CC=CC=C3` (stereo not given), for which the growth was 112%.

With `COc1cc(OC)c(NC(=O)CCS(=O)(=O)c2ccc3c(c2)NC(=O)C(C)S3)cc1Cl` (stereo not given), the growth came to 89.2%.

`COc1ccc(-n2cc(C#N)c3cccnc32)cc1` displayed a growth of 78.7%.

Turning to `Cc1nc2ncnn2c(O)c1Cc1ccccc1Cl`, the growth stood at 105%.

The molecule `CN(CCNC(=O)N\C1=C\N(C)C(=O)C2=CC=CC=C12)C3CCCCC3` registered a growth of 104%.

As for `FC1=CC=CC(=C1)CCNC(=O)CCC(=O)N\2CC\C(=N2)C3=CC=CC=C3`, the growth is 100%.

`COC(=O)c1c(C)[nH]c(C(=O)N2CCN(S(C)(=O)=O)CC2)c1C` had a growth of 101%.

`Cc1nc(O)c(C#N)c(C)c1CCC(=O)N(C)Cc1ccc(OC(F)F)cc1`: the growth worked out at 105%.

`N#Cc1ccc(CSc2ccc(S(=O)(=O)N3CCCC3)cn2)cc1`: the growth was 85.1%.

With `Cc1cc(-c2ccco2)n(CC(=O)NCc2ccccc2Cl)n1`, the growth was 105%.

Molecule `COc1cccc(OC)c1C(=O)OCC(=O)NC(=O)NCc1ccccc1` gave a growth of 90.4%.
